Measured values published in PMC7819943, “Rice protein-binding microarrays: a tool to detect cis-acting elements near promoter regions in rice”.
Some of the results follow.

Each sequence was assayed against T1, OsSMF1 (Oryza sativa, UniProt Q6ZLB0 1-436) (assay: protein-binding microarray (RPBM); PBS, 2% BSA, 51.3 ng/ul salmon testes DNA, 50 uM zinc acetate, 200 nM TF, 25 C, 1 h; high values mean tight binding). Settings: protein: recombinant; tags: N-terminal polyhistidine and DsRed monomer fusion (pET32a); chain copies: 2; label: CyDye5-dUTP incorporated in the synthesized complementary strand; 3' TTTTT single-stranded linker to array surface; dsDNA, one strand shown.
T1 sequence: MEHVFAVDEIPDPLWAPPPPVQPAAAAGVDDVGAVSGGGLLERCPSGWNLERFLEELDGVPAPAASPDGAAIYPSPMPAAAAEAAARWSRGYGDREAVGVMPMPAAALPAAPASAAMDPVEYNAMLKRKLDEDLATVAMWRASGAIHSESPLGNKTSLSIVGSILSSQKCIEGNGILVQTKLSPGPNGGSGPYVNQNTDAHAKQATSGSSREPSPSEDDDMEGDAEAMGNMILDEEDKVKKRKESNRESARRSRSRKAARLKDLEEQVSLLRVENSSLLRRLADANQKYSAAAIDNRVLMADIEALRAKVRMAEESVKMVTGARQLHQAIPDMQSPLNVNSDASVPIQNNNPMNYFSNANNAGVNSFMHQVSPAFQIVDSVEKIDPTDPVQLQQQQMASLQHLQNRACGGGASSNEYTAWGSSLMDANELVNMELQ
In short: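 Transcription factors were each fused at the N-terminus to a polyhistidine tag plus DsRed and expressed in E. coli BL21-CodonPlus before Ni–NTA purification. Binding to a double-stranded custom Agilent array was carried out with 200 nM protein at 25 °C for 1 h in PBS, 2% BSA, salmon testes DNA and 50 µM zinc acetate. The binding signal is per-feature fluorescence intensity, in arbitrary units, on an Axon 4000B scanner.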
For “TGACACCGTCGCCACCTCGCCACCCATCCATTTCCATTGCCGGAGTCACCTAGTGCAG”, the binding signal was 3650 fluorescence intensity (a.u.). In the case of “TCGGCGCCGCGCCGCGCCACGGAGGGTGTCACGAGACCGCCGGAGTCACCTAGTGCAG”, the binding signal was 4790 fluorescence intensity (a.u.). In the case of “TGTTCGCCACCAACCTCAAACCAACCAAGCAACCAACCCACGGAGTCACCTAGTGCAG”, the binding signal was 28800 fluorescence intensity (a.u.). In the case of “TTATATATAGCCACACACGTCCTTGTCTAGTCCACTACACCGGAGTCACCTAGTGCAG”, the binding signal was 3480 fluorescence intensity (a.u.). For “AACCGAATCAAAGATACAGTCAACGAGTCATCGCAAGCAGCGGAGTCACCTAGTGCAG”, the binding signal was 4210 fluorescence intensity (a.u.). “CTGTCACTGGAACGAGGCACACGTCAGAAGCACTCCCAAACGGAGTCACCTAGTGCAG” was tested, and the binding signal was 7700 fluorescence intensity (a.u.). In the case of “TCTATCTTTCTTTCTGATTTCTCATTAATTTCGCATCAAGCGGAGTCACCTAGTGCAG”, the binding signal was 4060 fluorescence intensity (a.u.). For “TCAGCTTGAGGTCCTAACACGTCTAATGAACAAGAAGTCGCGGAGTCACCTAGTGCAG”, the binding signal was 3720 fluorescence intensity (a.u.). In the case of “ACCTAGACGCTTCCTCGCCTGCTTATGTGTTCTGGAGCGACGGAGTCACCTAGTGCAG”, the binding signal was 4510 fluorescence intensity (a.u.). In the case of “ACTCCACCTCCTAGCACGGAAAATGACGCTACCCATTAATCGGAGTCACCTAGTGCAG”, the binding signal was 3340 fluorescence intensity (a.u.). With “ATCATGGTCTTTTGCCAATATGGTATGCCACATAGACGATCGGAGTCACCTAGTGCAG” the binding signal was 3370 fluorescence intensity (a.u.). “TACTATGCGACAGAGTGTGTTGTCATCACCATTAGCGTTGCGGAGTCACCTAGTGCAG” was tested, and the binding signal was 5420 fluorescence intensity (a.u.). In the case of “GAACGAGGACTGGAGACCGGAAAATGGGCGCTGTCGTCAGCGGAGTCACCTAGTGCAG”, the binding signal was 3490 fluorescence intensity (a.u.). With “CACATTATATGGGGATGACTATGACTCCTAGTCGGTATGCCGGAGTCACCTAGTGCAG” the binding signal was 3980 fluorescence intensity (a.u.). “GCCGCCTCCGCGACAGGTCACCCTCTTCCCTTCCATCCAACGGAGTCACCTAGTGCAG” was tested, and the binding signal was 4080 fluorescence intensity (a.u.). “CGCATCTGTCAAACTGTCAATGTGTCATTATATTGTGTGTCGGAGTCACCTAGTGCAG” was tested, and the binding signal was 5940 fluorescence intensity (a.u.). With “GTCAGTACACACACGCACAAATCATGAATCTATCATTACTCGGAGTCACCTAGTGCAG” the binding signal was 31900 fluorescence intensity (a.u.). With “CCGCGGACCGCGGTAACGCCTGACGTCTGCGTTTGGTGCTCGGAGTCACCTAGTGCAG” the binding signal was 4740 fluorescence intensity (a.u.). “CCGTGACATGCCACATCAACGCATGGAACAAGTTAAAGCTCGGAGTCACCTAGTGCAG” was tested, and the binding signal was 8000 fluorescence intensity (a.u.). “GTCTGTTCACTTTGATGCCAAAATTTTGACAGGATTTCTTCGGAGTCACCTAGTGCAG” was tested, and the binding signal was 25000 fluorescence intensity (a.u.). With “GGTGGGTGCGCCTCGTGTACGCCGACTTCGCCGCCTTCTCCGGAGTCACCTAGTGCAG” the binding signal was 4420 fluorescence intensity (a.u.). In the case of “GGAAGAAGGCCGCCGACGCACAACAGAGGCGGCGGCGGGGCGGAGTCACCTAGTGCAG”, the binding signal was 3510 fluorescence intensity (a.u.). With “TTGTGAGCTCGGGATCTGTCCGCAGCCCAACATGACTGTACGGAGTCACCTAGTGCAG” the binding signal was 3820 fluorescence intensity (a.u.). “ATCGCCACACCGACCGGATACGTGGAATGAAACCCAAACCCGGAGTCACCTAGTGCAG” was tested, and the binding signal was 3530 fluorescence intensity (a.u.). “TTGTGAAGTGATATATTACATATTAACCTATCATGTCAATCGGAGTCACCTAGTGCAG” was tested, and the binding signal was 38100 fluorescence intensity (a.u.). For “ACAAGGTTACAGACGTGTCACGTGCGCGCGCGCATCTCTCCGGAGTCACCTAGTGCAG”, the binding signal was 6070 fluorescence intensity (a.u.). “CAACAATTTCCTCTCCTGTCAATGAACTTGTGTGCACGACCGGAGTCACCTAGTGCAG” was tested, and the binding signal was 21900 fluorescence intensity (a.u.). “CTGGACCCATATTTCATAGACACAGATGGGCCCATTTATCCGGAGTCACCTAGTGCAG” was tested, and the binding signal was 8190 fluorescence intensity (a.u.). With “TGTTGCACGGACATTTTGTCTATGACGCGGTAAGAGGGAGCGGAGTCACCTAGTGCAG” the binding signal was 3260 fluorescence intensity (a.u.). In the case of “CCAGAATCCAAATGGGCCGTCTCTCTTCGTCTGGGCCCATCGGAGTCACCTAGTGCAG”, the binding signal was 4820 fluorescence intensity (a.u.). With “TCCTGTCCTTCTTTCTCTTCAAGTCCTTCCTCTTCACTCCCGGAGTCACCTAGTGCAG” the binding signal was 65500 fluorescence intensity (a.u.). “GATTCACTAAGACTGAAATAAAGCATTGGGTCGAACTCTTCGGAGTCACCTAGTGCAG” was tested, and the binding signal was 3900 fluorescence intensity (a.u.). With “GTCATACACATACAACTTTTCAGTCACATCATCTCCAATTCGGAGTCACCTAGTGCAG” the binding signal was 3150 fluorescence intensity (a.u.). With “TACACTGGTGGATGTGAATCATTGGAATGCATGCCTCCTGCGGAGTCACCTAGTGCAG” the binding signal was 3810 fluorescence intensity (a.u.). In the case of “TGGCTTGAAAGTCACACCGTGAGTCAGACGATCCGCGTCCCGGAGTCACCTAGTGCAG”, the binding signal was 8380 fluorescence intensity (a.u.). In the case of “TATGCATGACATCACAACGAAAGCTGGGACCTCGTCGATCCGGAGTCACCTAGTGCAG”, the binding signal was 3600 fluorescence intensity (a.u.). “TCGCTCTCTCCACATCGGTCGTGCGGTCGTGCCGCCATCACGGAGTCACCTAGTGCAG” was tested, and the binding signal was 3460 fluorescence intensity (a.u.). In the case of “TCTCCCTGTTGCAGCACCTACGTGTAGTTTAGCTGCATCTCGGAGTCACCTAGTGCAG”, the binding signal was 4420 fluorescence intensity (a.u.). In the case of “TTTTGTCATTGCCGACTGATGCTTAATCACATTGTTGCGCCGGAGTCACCTAGTGCAG”, the binding signal was 3340 fluorescence intensity (a.u.). For “CTGTCGTCACCATGACACGTCATCAGTCGTTAGGGTCGGCCGGAGTCACCTAGTGCAG”, the binding signal was 25600 fluorescence intensity (a.u.). In the case of “TAAGATAAAGAAAGGAGGTCAGTGAGTCAGCAGAGTACCGCGGAGTCACCTAGTGCAG”, the binding signal was 16400 fluorescence intensity (a.u.). “TGAACTAAGCCACATTTGTCACTTGTCAGCAGAGAGCCAGCGGAGTCACCTAGTGCAG” was tested, and the binding signal was 3330 fluorescence intensity (a.u.).
